Laboratory results reported in the supplement of paper PMC10849652.
The list shows a part of the results. Residues, ends and D or L forms follow the SMILES beside them. *: point of attachment. Cbz = O=C(OCc1ccccc1)*

Chains of the proteins cited; added tags and fusions are not shown. Lines headed by an entry give the natural chain unless they say otherwise; changes in a name come on top.
UniProt Q9Y217: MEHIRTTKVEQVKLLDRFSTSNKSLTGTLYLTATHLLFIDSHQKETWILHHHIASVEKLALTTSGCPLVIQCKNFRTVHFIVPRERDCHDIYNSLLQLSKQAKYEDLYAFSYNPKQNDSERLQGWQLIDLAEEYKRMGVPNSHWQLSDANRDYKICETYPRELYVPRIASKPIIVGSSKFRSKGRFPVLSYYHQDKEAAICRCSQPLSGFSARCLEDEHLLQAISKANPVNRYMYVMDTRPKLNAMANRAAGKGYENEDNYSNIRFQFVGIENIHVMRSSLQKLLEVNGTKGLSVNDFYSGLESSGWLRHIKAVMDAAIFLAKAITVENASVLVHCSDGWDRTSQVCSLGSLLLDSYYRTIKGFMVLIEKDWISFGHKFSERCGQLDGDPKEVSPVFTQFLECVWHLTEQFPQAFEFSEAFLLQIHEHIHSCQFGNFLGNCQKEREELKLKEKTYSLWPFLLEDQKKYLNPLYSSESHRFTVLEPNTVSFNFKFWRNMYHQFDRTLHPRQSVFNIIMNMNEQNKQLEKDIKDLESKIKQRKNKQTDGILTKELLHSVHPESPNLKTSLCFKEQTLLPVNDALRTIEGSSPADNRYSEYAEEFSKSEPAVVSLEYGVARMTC
UniProt Q03426, whole entry, looked up: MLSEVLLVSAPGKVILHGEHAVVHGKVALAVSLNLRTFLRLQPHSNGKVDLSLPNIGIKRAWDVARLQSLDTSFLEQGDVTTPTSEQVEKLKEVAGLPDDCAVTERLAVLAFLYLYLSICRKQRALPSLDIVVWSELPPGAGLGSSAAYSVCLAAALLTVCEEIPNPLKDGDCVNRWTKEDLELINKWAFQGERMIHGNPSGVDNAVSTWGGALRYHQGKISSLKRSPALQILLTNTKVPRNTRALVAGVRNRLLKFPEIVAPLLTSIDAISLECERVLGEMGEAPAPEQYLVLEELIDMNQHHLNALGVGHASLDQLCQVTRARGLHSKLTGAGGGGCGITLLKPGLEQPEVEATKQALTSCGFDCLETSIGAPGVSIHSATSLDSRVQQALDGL
UniProt Q6P444: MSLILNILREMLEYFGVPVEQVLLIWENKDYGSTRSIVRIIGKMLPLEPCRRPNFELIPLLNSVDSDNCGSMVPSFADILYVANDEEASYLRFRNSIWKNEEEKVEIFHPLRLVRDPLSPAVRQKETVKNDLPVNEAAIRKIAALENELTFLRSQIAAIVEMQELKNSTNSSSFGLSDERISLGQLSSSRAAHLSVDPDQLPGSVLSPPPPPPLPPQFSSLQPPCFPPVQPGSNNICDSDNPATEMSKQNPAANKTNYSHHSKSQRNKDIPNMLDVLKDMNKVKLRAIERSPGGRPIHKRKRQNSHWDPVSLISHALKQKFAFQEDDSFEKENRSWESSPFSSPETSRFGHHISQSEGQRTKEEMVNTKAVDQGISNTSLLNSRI
UniProt P82909: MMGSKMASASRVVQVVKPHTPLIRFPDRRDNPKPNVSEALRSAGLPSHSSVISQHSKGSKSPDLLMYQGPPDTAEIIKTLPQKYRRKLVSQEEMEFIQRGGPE
UniProt Q9Y3D2: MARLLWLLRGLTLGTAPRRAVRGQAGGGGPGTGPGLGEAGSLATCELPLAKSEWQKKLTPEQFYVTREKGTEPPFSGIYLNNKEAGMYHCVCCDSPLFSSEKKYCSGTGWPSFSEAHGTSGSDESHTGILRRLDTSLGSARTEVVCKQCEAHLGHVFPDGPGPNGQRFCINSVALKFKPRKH
UniProt P26038, whole entry, looked up: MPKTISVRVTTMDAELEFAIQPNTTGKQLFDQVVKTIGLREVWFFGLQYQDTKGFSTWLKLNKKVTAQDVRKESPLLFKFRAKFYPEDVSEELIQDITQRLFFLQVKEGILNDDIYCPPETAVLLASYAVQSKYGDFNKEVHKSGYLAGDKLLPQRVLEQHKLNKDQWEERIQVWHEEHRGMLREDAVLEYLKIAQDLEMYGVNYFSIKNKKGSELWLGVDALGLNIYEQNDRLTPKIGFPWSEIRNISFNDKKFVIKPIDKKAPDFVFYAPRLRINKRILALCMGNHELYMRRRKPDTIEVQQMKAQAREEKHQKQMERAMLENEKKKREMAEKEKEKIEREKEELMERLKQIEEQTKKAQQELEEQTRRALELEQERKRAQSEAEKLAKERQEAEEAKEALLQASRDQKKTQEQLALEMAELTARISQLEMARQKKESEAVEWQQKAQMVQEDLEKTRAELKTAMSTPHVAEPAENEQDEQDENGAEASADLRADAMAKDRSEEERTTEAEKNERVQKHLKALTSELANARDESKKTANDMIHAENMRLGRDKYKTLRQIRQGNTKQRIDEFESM
UniProt P03905, whole entry, looked up: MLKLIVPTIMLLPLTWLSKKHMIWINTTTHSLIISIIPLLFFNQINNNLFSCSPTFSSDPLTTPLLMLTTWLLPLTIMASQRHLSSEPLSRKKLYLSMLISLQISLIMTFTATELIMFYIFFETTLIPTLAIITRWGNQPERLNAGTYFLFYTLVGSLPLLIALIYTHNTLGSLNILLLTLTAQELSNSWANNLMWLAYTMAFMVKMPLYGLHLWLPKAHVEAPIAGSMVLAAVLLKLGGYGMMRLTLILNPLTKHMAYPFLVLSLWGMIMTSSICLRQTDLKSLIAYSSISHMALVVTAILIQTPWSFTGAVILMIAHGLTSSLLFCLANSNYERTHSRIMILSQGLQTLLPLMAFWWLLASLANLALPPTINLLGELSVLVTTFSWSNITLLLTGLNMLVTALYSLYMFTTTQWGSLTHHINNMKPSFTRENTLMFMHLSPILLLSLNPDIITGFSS
UniProt Q92614: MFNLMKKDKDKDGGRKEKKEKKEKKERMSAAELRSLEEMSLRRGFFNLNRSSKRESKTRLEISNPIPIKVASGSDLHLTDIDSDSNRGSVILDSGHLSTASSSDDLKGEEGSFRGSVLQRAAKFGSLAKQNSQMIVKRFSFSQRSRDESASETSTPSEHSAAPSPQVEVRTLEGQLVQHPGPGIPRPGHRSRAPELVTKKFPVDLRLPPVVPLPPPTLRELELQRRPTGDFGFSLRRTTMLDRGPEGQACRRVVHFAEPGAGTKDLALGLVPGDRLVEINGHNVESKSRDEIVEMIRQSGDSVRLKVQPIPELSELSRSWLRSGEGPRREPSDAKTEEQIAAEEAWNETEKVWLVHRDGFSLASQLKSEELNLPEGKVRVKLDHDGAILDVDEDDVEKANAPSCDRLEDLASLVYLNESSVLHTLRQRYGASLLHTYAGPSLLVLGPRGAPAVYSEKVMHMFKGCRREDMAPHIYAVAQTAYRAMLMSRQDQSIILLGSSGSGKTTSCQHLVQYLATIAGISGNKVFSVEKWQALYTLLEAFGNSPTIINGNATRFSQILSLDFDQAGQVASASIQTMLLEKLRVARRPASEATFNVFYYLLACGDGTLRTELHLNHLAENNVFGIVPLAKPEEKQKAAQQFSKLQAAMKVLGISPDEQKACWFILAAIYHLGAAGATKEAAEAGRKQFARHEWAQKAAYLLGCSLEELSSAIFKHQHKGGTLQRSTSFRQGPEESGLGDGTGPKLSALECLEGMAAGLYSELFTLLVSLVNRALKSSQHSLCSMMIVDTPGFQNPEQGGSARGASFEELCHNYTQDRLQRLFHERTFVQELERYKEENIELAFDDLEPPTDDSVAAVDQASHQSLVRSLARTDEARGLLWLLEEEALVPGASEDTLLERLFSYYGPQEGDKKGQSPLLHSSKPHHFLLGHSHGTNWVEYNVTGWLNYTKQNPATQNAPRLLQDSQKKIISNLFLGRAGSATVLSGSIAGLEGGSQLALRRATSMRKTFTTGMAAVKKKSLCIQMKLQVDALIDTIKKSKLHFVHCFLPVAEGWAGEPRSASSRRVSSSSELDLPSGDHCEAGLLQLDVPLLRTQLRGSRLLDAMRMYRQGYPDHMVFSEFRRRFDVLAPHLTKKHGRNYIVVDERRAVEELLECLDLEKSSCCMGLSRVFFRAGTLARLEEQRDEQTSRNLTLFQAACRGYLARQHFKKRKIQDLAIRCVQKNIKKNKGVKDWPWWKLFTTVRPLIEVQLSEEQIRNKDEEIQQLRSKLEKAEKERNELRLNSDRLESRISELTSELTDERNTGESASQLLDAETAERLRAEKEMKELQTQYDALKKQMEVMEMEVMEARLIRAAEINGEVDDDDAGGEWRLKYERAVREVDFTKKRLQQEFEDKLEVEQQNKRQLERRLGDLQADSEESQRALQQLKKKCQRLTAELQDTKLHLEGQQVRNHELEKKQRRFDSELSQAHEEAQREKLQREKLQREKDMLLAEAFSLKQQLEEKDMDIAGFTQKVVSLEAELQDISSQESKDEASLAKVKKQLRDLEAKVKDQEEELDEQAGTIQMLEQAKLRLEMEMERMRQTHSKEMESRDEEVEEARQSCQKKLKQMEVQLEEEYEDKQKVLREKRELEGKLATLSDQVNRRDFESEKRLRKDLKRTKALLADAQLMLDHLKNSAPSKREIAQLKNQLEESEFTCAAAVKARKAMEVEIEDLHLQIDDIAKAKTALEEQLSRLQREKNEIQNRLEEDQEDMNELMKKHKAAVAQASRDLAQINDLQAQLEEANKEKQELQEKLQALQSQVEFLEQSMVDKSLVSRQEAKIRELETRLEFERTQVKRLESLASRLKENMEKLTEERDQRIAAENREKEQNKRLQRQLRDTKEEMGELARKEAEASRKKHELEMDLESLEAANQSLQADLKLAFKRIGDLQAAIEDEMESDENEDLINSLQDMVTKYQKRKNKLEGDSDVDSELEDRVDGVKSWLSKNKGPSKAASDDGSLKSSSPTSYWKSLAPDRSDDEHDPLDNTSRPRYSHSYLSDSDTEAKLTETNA
UniProt Q96QG7: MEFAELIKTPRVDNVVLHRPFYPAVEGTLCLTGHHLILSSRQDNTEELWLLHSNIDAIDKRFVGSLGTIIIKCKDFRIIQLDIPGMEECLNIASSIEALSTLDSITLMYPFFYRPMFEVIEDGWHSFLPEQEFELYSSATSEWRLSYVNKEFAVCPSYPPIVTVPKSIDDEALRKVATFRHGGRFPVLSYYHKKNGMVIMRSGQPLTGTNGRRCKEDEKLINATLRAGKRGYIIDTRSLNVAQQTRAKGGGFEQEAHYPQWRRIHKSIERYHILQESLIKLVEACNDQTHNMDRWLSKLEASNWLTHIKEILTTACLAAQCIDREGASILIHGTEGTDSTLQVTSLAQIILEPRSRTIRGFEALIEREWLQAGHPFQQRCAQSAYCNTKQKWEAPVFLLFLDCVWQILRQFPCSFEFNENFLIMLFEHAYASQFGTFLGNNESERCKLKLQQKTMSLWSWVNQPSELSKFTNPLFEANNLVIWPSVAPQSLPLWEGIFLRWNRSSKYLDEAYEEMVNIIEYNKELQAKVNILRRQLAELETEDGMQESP
UniProt P12829: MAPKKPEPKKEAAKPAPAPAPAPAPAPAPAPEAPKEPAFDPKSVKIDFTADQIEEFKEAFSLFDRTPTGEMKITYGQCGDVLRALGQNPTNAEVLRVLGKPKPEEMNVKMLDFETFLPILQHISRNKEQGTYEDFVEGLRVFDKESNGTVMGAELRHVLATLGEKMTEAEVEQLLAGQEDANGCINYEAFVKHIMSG
UniProt O75431: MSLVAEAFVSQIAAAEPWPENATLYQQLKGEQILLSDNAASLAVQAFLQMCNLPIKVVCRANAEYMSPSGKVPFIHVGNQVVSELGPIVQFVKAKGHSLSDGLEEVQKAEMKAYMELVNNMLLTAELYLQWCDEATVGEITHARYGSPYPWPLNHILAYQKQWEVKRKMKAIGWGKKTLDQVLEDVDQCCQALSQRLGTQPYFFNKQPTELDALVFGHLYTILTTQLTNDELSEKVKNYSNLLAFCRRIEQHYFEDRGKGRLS
UniProt Q99836, whole entry, looked up: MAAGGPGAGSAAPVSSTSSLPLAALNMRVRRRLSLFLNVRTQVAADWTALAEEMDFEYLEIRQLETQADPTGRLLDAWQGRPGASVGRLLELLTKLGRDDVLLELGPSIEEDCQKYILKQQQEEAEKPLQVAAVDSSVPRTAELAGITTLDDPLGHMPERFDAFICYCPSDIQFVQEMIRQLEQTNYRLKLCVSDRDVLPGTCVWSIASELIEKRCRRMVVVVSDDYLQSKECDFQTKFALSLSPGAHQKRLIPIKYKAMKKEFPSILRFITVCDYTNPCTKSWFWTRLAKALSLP

Key:
Experiment in all cases: log2 fold change, soluble protein after heating vs DMSO (PISA); higher = thermal stabilisation; K562 cells, 10 uM, 30 min; active = over 0.2 and 3.5 SD of the protein, either way, in both replicates (recomputed)
[1] = compound: C1COCCN1CCN2C3=CC=CC=C3N=C2NC(=O)C4=CC(=CC=C4)[N+](=O)[O-] [IRAK-1-4 Inhibitor I]
Procedure, shortened: (§1)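 For each measurement, 10 μM compound was applied for 30 min to K562 cells at 2×10^6 cells/mL. Aliquots were heated for 3 min across 48°C-58°C, pooled, and extracted in PBS with 0.5% NP-40 at 4°C; the supernatant after 21,000xg for 90 min was soluble protein. This was quantified by TMTpro 16plex LC-MS/MS with channel sums equalised, and thermal stability was reported relative to control samples from duplicates, on a log2 fold-change scale.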

[2] = compound: C=CC(=O)N1CCC[C@@H](n2nc(-c3ccc(Oc4ccccc4)cc3)c3c(N)ncnc32)C1 [ibrutinib]
Procedure, shortened: as §1

[3] = compound: CC(=O)c1cnc2ccc(-c3cc(Cl)c(O)c(Cl)c3)nc2c1N[C@H]1CC[C@H](CN(C)C)CC1
Procedure, shortened: as §1

[4] = compound: CC(C)(C)Cn1c(N)nc2ccc(-c3[nH]c(C(C)(C)C)nc3-c3ccc(F)cc3)nc21 [ralimetinib]
Procedure, shortened: as §1

[5] = compound: CC(C)(O)CC(=O)NCCn1ccc2ncnc(Nc3ccc(Oc4cccc(C(F)(F)F)c4)c(Cl)c3)c21
Procedure, shortened: as §1

[6] = compound: CC(C)C1=C2N=C(C=C(N2N=C1)NCC3=CC=CC=C3)NCCCCCCN
Procedure, shortened: as §1

[7] = compound: CC(C)C[C@@H](C=O)NC(=O)[C@H](CC(C)C)NC(=O)[C@H](CC(C)C)NC(=O)OCc1ccccc1
Procedure, shortened: as §1

[8] = compound: CC(C)N(C[C@H]1O[C@@H](n2cnc3c(N)ncnc32)[C@H](O)[C@@H]1O)[C@H]1C[C@@H](CCc2nc3cc(C(C)(C)C)ccc3[nH]2)C1 [pinometostat]
Procedure, shortened: as §1

[9] = compound: CC1=C(C(CC(=O)N1)C2=CC=C(C=C2)C(F)(F)F)C(=O)NC3=C(C=C4C(=C3)C=NN4)F
Procedure, shortened: as §1

[10] = compound: CC1=C(C2=C(C=C1)C(=O)C3=CC=CC=C3N2CCCN)C
Procedure, shortened: as §1

[11] = compound: CC1=C(C=C(C=C1)NC(=O)C2=CC(=CC=C2)C(C)(C)C#N)NC3=CC4=C(C=C3)N=CN(C4=O)C
Procedure, shortened: as §1

[12] = compound: CC1=C(C=C(C=C1)NC(=O)C2=CC(=CC=C2)N(C)C)NC(=O)C3=CC=C(C=C3)O
Procedure, shortened: as §1

[13] = compound: CC1=CC=C(C=C1)SC2=C3C=C(SC3=CN=C2)C(=O)N
Procedure, shortened: as §1

[14] = compound: CC1=NC(=CC=C1)C2=C(N=C(N2)C(C)(C)C)C3=CC4=NC=CN=C4C=C3
Procedure, shortened: as §1

[15] = compound: CCCCN(Cc1ccc(C(=O)NO)cc1)C(=O)Nc1ccccc1 [Nexturastat A]
Procedure, shortened: as §1

[16] = compound: CCCS(=O)(=O)Nc1ccc(F)c(C(=O)c2c[nH]c3ncc(-c4ccc(Cl)cc4)cc23)c1F [vemurafenib]
Procedure, shortened: as §1

[17] = compound: CCCS(=O)(=O)Nc1ccc(F)c(C(=O)c2c[nH]c3ncc(Cl)cc23)c1F
Procedure, shortened: as §1

[18] = compound: CCCc1cc(C)[nH]c(=O)c1CNC(=O)c1cc(-c2ccnc(N3CCN(C)CC3)c2)cc2c1cnn2C(C)C
Procedure, shortened: as §1

[19] = compound: CCN(CC)Cc1ccc2cc(COC(=O)Nc3ccc(C(=O)NO)cc3)ccc2c1 [givinostat]
Procedure, shortened: as §1

[20] = compound: CCN(CCCOc1ccc2c(Nc3cc(CC(=O)Nc4cccc(F)c4)[nH]n3)ncnc2c1)CCOP(=O)(O)O [barasertib]
Procedure, shortened: as §1

Measured: log2 fold change

MTMR6 (UniProt Q9Y217)
inactive: [1] -0.056 | [2] 0.046 | [3] -0.062 | [4] -0.04 | [5] -0.05 | [6] -0.069 | [7] 0.08 | [8] -0.017 | [9] 0.047 | [10] -0.072 | [11] -0.076 | [12] 0.033 | [13] -0.025 | [14] 0.11 | [15] 0.023 | [16] 0.064 | [17] -0.051 | [18] -0.024 | [19] 0.1 | [20] 0.004

MVK (UniProt Q03426)
inactive: [1] -0.016 | [2] -0.02 | [3] -0.002 | [4] -0.023 | [5] -0.038 | [6] 0.047 | [7] -0.019 | [8] -0.003 | [9] 0.027 | [10] -0.003 | [11] 0.017 | [12] -0.016 | [13] 0.019 | [14] 0.026 | [15] -0.064 | [16] 0.017 | [17] 0.009 | [18] -0.064 | [19] -0.015 | [20] 0.01

MTFR2 (UniProt Q6P444)
inactive: [1] 0.018 | [2] 0.012 | [3] -0.076 | [4] 0.024 | [5] -0.137 | [6] -0.048 | [7] 0.035 | [8] -0.046 | [9] 0.064 | [10] -0.055 | [11] -0.076 | [12] -0.075 | [13] 0.196 | [14] 0.037 | [15] -0.036 | [16] -0.026 | [17] 0.165 | [18] -0.341 | [19] 0.038 | [20] 0.029

MRPS36 (UniProt P82909)
inactive: [1] 0.041 | [2] -0.021 | [3] -0.026 | [4] -0.064 | [5] 0.087 | [6] 0.086 | [7] 0.104 | [8] 0.009 | [9] 0.057 | [10] -0.055 | [11] 0.021 | [12] -0.059 | [13] -0.039 | [14] 0.01 | [15] -0.018 | [16] -0.033 | [17] 0.035 | [18] 0.5 | [19] 0.007 | [20] -0.026

MRPS31 (UniProt Q92665)
inactive: [1] -0.057 | [2] 0.014 | [3] -0.073 | [4] -0.005 | [5] -0.032 | [6] -0.086 | [7] 0.057 | [8] 0.034 | [10] -0.14 | [11] -0.015 | [12] -0.012 | [13] -0.041 | [14] -0.017 | [15] 0.111 | [16] -0.041 | [17] 0.054 | [18] -0.012 | [19] 0.009 | [20] -0.007

2 consecutive entries from above, quoted:
MVK (UniProt Q03426)
inactive: [1] -0.016 | [2] -0.02 | [3] -0.002 | [4] -0.023 | [5] -0.038 | [6] 0.047 | [7] -0.019 | [8] -0.003 | [9] 0.027 | [10] -0.003 | [11] 0.017 | [12] -0.016 | [13] 0.019 | [14] 0.026 | [15] -0.064 | [16] 0.017 | [17] 0.009 | [18] -0.064 | [19] -0.015 | [20] 0.01

MTFR2 (UniProt Q6P444)
inactive: [1] 0.018 | [2] 0.012 | [3] -0.076 | [4] 0.024 | [5] -0.137 | [6] -0.048 | [7] 0.035 | [8] -0.046 | [9] 0.064 | [10] -0.055 | [11] -0.076 | [12] -0.075 | [13] 0.196 | [14] 0.037 | [15] -0.036 | [16] -0.026 | [17] 0.165 | [18] -0.341 | [19] 0.038 | [20] 0.029

(listing goes on)

MSRB2 (UniProt Q9Y3D2)
inactive: [1] 0.154 | [2] -0.224 | [3] -0.254 | [4] -0.01 | [5] -0.156 | [6] 0.095 | [7] -0.03 | [8] -0.115 | [9] -0.124 | [10] -0.121 | [11] 0.008 | [12] -0.174 | [13] -0.042 | [14] -0.079 | [15] 0.007 | [16] -0.076 | [17] -0.157 | [18] -0.014 | [19] 0.035 | [20] 0.128

MSN (UniProt P26038)
inactive: [1] -0.005 | [2] -0.022 | [3] 0.055 | [4] -0.004 | [5] 0.034 | [6] 0.049 | [7] -0.01 | [8] -0.053 | [9] -0.061 | [10] 0.015 | [11] 0.053 | [12] 0.008 | [13] -0.02 | [14] 0.039 | [15] -0.027 | [16] 0.042 | [17] 0.008 | [18] 0.026 | [19] -0.023 | [20] 0.028

MT-ND4 (UniProt P03905)
inactive: [1] -0.005 | [2] -0.092 | [3] -0.236 | [4] -0.06 | [5] -0.094 | [6] -0.124 | [7] -0.054 | [8] -0.135 | [10] 0.056 | [11] -0.064 | [12] 0.067 | [13] 0.015 | [14] 0.048 | [15] -0.155 | [16] 0.004 | [17] 0.016 | [18] 0.014 | [19] 0.058 | [20] 0.156

MRPS25 (UniProt P82663)
inactive: [1] -0.059 | [2] 0.12 | [3] -0.021 | [4] -0.007 | [5] 0.074 | [6] -0.071 | [7] 0.017 | [8] -0.018 | [10] -0.091 | [11] 0.033 | [12] -0.009 | [13] 0.085 | [14] 0.078 | [15] 0.012 | [16] -0.089 | [17] 0.078 | [18] -0.082 | [19] 0.049 | [20] -0.02

MYO18A (UniProt Q92614)
inactive: [1] 0.014 | [2] 0.1 | [3] -0.177 | [4] 0.096 | [5] 0.066 | [6] -0.066 | [7] 0.123 | [8] 0.1 | [9] 0.034 | [10] -0.041 | [11] -0.085 | [12] 0.022 | [13] 0.008 | [14] -0.06 | [15] 0.166 | [16] -0.05 | [17] -0.047 | [18] 0.028 | [19] -0.01 | [20] 0.01

MTMR9 (UniProt Q96QG7)
inactive: [1] -0.039 | [2] 0.037 | [3] -0.081 | [4] 0.007 | [5] -0.119 | [6] -0.068 | [7] -0.016 | [8] 0.014 | [9] -0.173 | [10] 0.004 | [12] 0.205 | [13] -0.071 | [14] 0.013 | [15] 0.014 | [16] 0.049 | [17] 0.036 | [18] 0.049 | [19] 0.086 | [20] 0

MYL4 (UniProt P12829)
inactive: [1] -0.031 | [2] 0.024 | [3] 0.04 | [4] -0.004 | [5] -0.003 | [6] 0.111 | [7] 0.003 | [8] -0.089 | [9] 0.043 | [10] 0.043 | [11] 0.008 | [12] -0.018 | [13] 0.002 | [14] 0.038 | [15] -0.018 | [16] -0.011 | [17] -0.084 | [18] -0.046 | [19] 0.002 | [20] -0.003

MRPL58 (UniProt Q14197)
inactive: [1] -0.093 | [2] 0.01 | [3] 0.098 | [4] 0.025 | [5] 0.008 | [6] 0.022 | [7] 0.075 | [8] 0.072 | [9] 0.024 | [10] -0.035 | [11] 0.04 | [12] -0.013 | [13] -0.015 | [14] -0.036 | [15] 0.114 | [16] -0.095 | [17] 0.021 | [18] 0.097 | [19] 0.051 | [20] -0.059

MTX2 (UniProt O75431)
inactive: [1] 0.037 | [2] 0.004 | [3] -0.01 | [4] -0.077 | [5] -0.048 | [6] 0.01 | [7] 0.047 | [8] 0.01 | [9] -0.019 | [10] 0.056 | [11] -0.017 | [12] -0.008 | [13] -0.043 | [14] -0.024 | [15] 0.049 | [16] 0.034 | [17] 0.008 | [18] -0.007 | [19] 0.01 | [20] -0.009

MRPS9 (UniProt P82933)
inactive: [1] -0.061 | [2] 0.024 | [3] -0.022 | [4] -0.023 | [5] 0.001 | [6] -0.059 | [7] 0.07 | [8] 0.018 | [11] 0.053 | [12] -0.025 | [13] -0.029 | [14] 0.02 | [15] 0.057 | [16] -0.043 | [17] 0.053 | [18] -0.019 | [19] 0.026 | [20] -0.043
active: [10] -0.243

MYD88 isoform 6 (UniProt Q99836)
inactive: [1] -0.312 | [2] -0.047 | [3] -0.066 | [5] -0.052 | [8] 0.216 | [9] 0.116 | [11] -0.091 | [13] -0.049 | [14] 0.064 | [15] 0.176 | [16] 0.347 | [17] -0.143 | [18] 0.274 | [20] -0.248
